{
  "source": "the supplement of paper PMC8728848",
  "binders": {"B1": {"name": "GST Gap3 (Streptococcus parasanguinis) (protein)", "chain": "MTKQLISEIYWNEIRKGENYLYGSQIKFQEDLVNFYNPQLASGKPIVTFKSRTNYQGDRHSPDLPILIQGNRYLLEYQIDAVPANSFFLQLDFFNRQAEQIESIVLRNSGESFIFPKDTFTYTLTLMSAGCQSVTYQKFMIYDINDEEKKNHIVENRYLRELLPKDLDLVKNLIEYI"}},
  "assay_in_all_cases": "glycan array binding signal (z-score within array); higher = stronger binding",
  "settings_in_all_cases": "glycan notation: IUPAC condensed, linker removed",
  "key": {"[1]": {"target": "Fuc(a1-2)Gal(b1-4)GlcNAc(b1-6)GalNAc", "outline": "(§1)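 Glycan array data came from 3228 arrays in the Consortium for Functional Glycomics database, and only arrays with an available protein sequence were kept. Glycan names were put into IUPAC-condensed notation, and columns mapping to the same glycan were averaged. The binding signal is a within-array Z-score, averaged across arrays of one protein sequence run at different concentrations or buffers and across linkers. A negative Z-score can be read as non-binding.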"}, "[2]": {"target": "Fuc(a1-2)Gal(b1-4)GlcNAc6S", "outline": "as §1"}, "[3]": {"target": "Fuc(a1-2)Gal(b1-4)[Fuc(a1-3)]GlcNAc", "outline": "as §1"}, "[4]": {"target": "Fuc(a1-2)Gal(b1-4)[Fuc(a1-3)]GlcNAc(b1-2)Man(a1-3)[Fuc(a1-2)Gal(b1-4)[Fuc(a1-3)]GlcNAc(b1-2)Man(a1-6)]Man(b1-4)GlcNAc(b1-4)GlcNAc", "outline": "as §1"}, "[5]": {"target": "Fuc(a1-2)Gal(b1-4)[Fuc(a1-3)]GlcNAc(b1-2)Man(a1-3)[Fuc(a1-2)Gal(b1-4)[Fuc(a1-3)]GlcNAc(b1-2)Man(a1-6)]Man(b1-4)GlcNAc(b1-4)[Fuc(a1-6)]GlcNAc", "outline": "as §1"}, "[6]": {"target": "Fuc(a1-2)Gal(b1-4)[Fuc(a1-3)]GlcNAc(b1-2)[Fuc(a1-2)Gal(b1-4)[Fuc(a1-3)]GlcNAc(b1-4)]Man(a1-3)[Fuc(a1-2)Gal(b1-4)[Fuc(a1-3)]GlcNAc(b1-2)Man(a1-6)]Man(b1-4)GlcNAc(b1-4)GlcNAc", "outline": "as §1"}, "[7]": {"target": "Fuc(a1-2)Gal(b1-4)[Fuc(a1-3)]GlcNAc(b1-3)Gal(b1-4)[Fuc(a1-3)]GlcNAc", "outline": "as §1"}, "[8]": {"target": "Fuc(a1-2)Gal(b1-4)[Fuc(a1-3)]GlcNAc(b1-3)Gal(b1-4)[Fuc(a1-3)]GlcNAc(b1-3)Gal(b1-4)[Fuc(a1-3)]GlcNAc", "outline": "as §1"}, "[9]": {"target": "Fuc(a1-2)Gal(b1-4)[Fuc(a1-3)]GlcNAc(b1-3)GalNAc", "outline": "as §1"}, "[10]": {"target": "Fuc(a1-2)Gal(b1-4)[Fuc(a1-3)]GlcNAc(b1-3)[Neu5Ac(a2-6)Gal(b1-4)GlcNAc(b1-6)]Gal(b1-4)Glc", "outline": "as §1"}, "[11]": {"target": "Fuc(a1-2)Gal3S(b1-4)GlcNAc", "outline": "as §1"}, "[12]": {"target": "Fuc(a1-2)Gal6S(b1-3)GlcNAc", "outline": "as §1"}, "[13]": {"target": "Fuc(a1-2)Gal6S(b1-3)GlcNAc6S", "outline": "as §1"}, "Fuc(a1-2)Gal6S(b1-4)Glc": {"target": "Fuc(a1-2)Gal6S(b1-4)Glc", "outline": "as §1"}, "[14]": {"target": "Fuc(a1-2)Gal6S(b1-4)Glc6S", "outline": "as §1"}, "[15]": {"target": "Fuc(a1-2)Gal6S(b1-4)GlcNAc", "outline": "as §1"}, "Fuc(a1-2)[Gal(a1-3)]Gal": {"target": "Fuc(a1-2)[Gal(a1-3)]Gal", "outline": "as §1"}, "[16]": {"target": "Fuc(a1-2)[Gal(a1-3)]Gal(b1-3)GalNAc", "outline": "as §1"}, "[17]": {"target": "Fuc(a1-2)[Gal(a1-3)]Gal(b1-3)GalNAc(b1-3)Gal(a1-4)Gal(b1-4)Glc", "outline": "as §1"}, "[18]": {"target": "Fuc(a1-2)[Gal(a1-3)]Gal(b1-3)GlcNAc", "outline": "as §1"}, "[19]": {"target": "Fuc(a1-2)[Gal(a1-3)]Gal(b1-3)GlcNAc(b1-2)Man(a1-3)[Fuc(a1-2)[Gal(a1-3)]Gal(b1-3)GlcNAc(b1-2)Man(a1-6)]Man(b1-4)GlcNAc(b1-4)GlcNAc", "outline": "as §1"}, "[20]": {"target": "Fuc(a1-2)[Gal(a1-3)]Gal(b1-3)GlcNAc(b1-2)Man(a1-3)[Fuc(a1-2)[Gal(a1-3)]Gal(b1-3)GlcNAc(b1-2)Man(a1-6)]Man(b1-4)GlcNAc(b1-4)[Fuc(a1-6)]GlcNAc", "outline": "as §1"}, "[21]": {"target": "Fuc(a1-2)[Gal(a1-3)]Gal(b1-3)GlcNAc(b1-3)GalNAc", "outline": "as §1"}, "[22]": {"target": "Fuc(a1-2)[Gal(a1-3)]Gal(b1-3)GlcNAc(b1-6)GalNAc", "outline": "as §1"}, "[23]": {"target": "Fuc(a1-2)[Gal(a1-3)]Gal(b1-4)Glc", "outline": "as §1"}, "[24]": {"target": "Fuc(a1-2)[Gal(a1-3)]Gal(b1-4)GlcNAc", "outline": "as §1"}, "[25]": {"target": "Fuc(a1-2)[Gal(a1-3)]Gal(b1-4)GlcNAc(b1-2)Man", "outline": "as §1"}, "[26]": {"target": "Fuc(a1-2)[Gal(a1-3)]Gal(b1-4)GlcNAc(b1-2)Man(a1-3)[Fuc(a1-2)[Gal(a1-3)]Gal(b1-4)GlcNAc(b1-2)Man(a1-6)]Man(b1-4)GlcNAc(b1-4)GlcNAc", "outline": "as §1"}, "[27]": {"target": "Fuc(a1-2)[Gal(a1-3)]Gal(b1-4)GlcNAc(b1-2)Man(a1-3)[Fuc(a1-2)[Gal(a1-3)]Gal(b1-4)GlcNAc(b1-2)Man(a1-6)]Man(b1-4)GlcNAc(b1-4)[Fuc(a1-6)]GlcNAc", "outline": "as §1"}, "[28]": {"target": "Fuc(a1-2)[Gal(a1-3)]Gal(b1-4)GlcNAc(b1-3)GalNAc", "outline": "as §1"}, "[29]": {"target": "Fuc(a1-2)[Gal(a1-3)]Gal(b1-4)GlcNAc(b1-3)[Fuc(a1-2)[Gal(a1-3)]Gal(b1-4)GlcNAc(b1-6)]GalNAc", "outline": "as §1"}, "[30]": {"target": "Fuc(a1-2)[Gal(a1-3)]Gal(b1-4)GlcNAc(b1-6)GalNAc", "outline": "as §1"}, "[31]": {"target": "Fuc(a1-2)[Gal(a1-3)]Gal(b1-4)[Fuc(a1-3)]Glc", "outline": "as §1"}, "[32]": {"target": "Fuc(a1-2)[Gal(a1-3)]Gal(b1-4)[Fuc(a1-3)]GlcNAc", "outline": "as §1"}, "[33]": {"target": "Fuc(a1-2)[Gal(a1-3)]Gal(b1-4)[Fuc(a1-3)]GlcNAc(b1-3)GalNAc", "outline": "as §1"}, "[34]": {"target": "Fuc(a1-2)[Gal(a1-4)]Gal(b1-4)GlcNAc", "outline": "as §1"}, "[35]": {"target": "Fuc(a1-2)[GalNAc(a1-3)]Gal", "outline": "as §1"}, "[36]": {"target": "Fuc(a1-2)[GalNAc(a1-3)]Gal(b1-3)GalNAc(a1-3)[Fuc(a1-2)]Gal(b1-4)GlcNAc", "outline": "as §1"}},
  "note": "This is one part of the list.",
  "data": [
    {"binder": "B1", "values": [
      {"measurement": "glycan array binding signal (z-score)", "setting": "[1]", "result": -0.108},
      {"measurement": "glycan array binding signal (z-score)", "setting": "[2]", "result": -0.096},
      {"measurement": "glycan array binding signal (z-score)", "setting": "[3]", "result": 0.037},
      {"measurement": "glycan array binding signal (z-score)", "setting": "[4]", "result": 0.952},
      {"measurement": "glycan array binding signal (z-score)", "setting": "[5]", "result": 0.367},
      {"measurement": "glycan array binding signal (z-score)", "setting": "[6]", "result": 0.945},
      {"measurement": "glycan array binding signal (z-score)", "setting": "[7]", "result": 0.061},
      {"measurement": "glycan array binding signal (z-score)", "setting": "[8]", "result": 1.25},
      {"measurement": "glycan array binding signal (z-score)", "setting": "[9]", "result": 0.492},
      {"measurement": "glycan array binding signal (z-score)", "setting": "[10]", "result": -0.463},
      {"measurement": "glycan array binding signal (z-score)", "setting": "[11]", "result": -0.348},
      {"measurement": "glycan array binding signal (z-score)", "setting": "[12]", "result": -0.051},
      {"measurement": "glycan array binding signal (z-score)", "setting": "[13]", "result": 2.06},
      {"measurement": "glycan array binding signal (z-score)", "setting": "Fuc(a1-2)Gal6S(b1-4)Glc", "result": -0.095},
      {"measurement": "glycan array binding signal (z-score)", "setting": "[14]", "result": -0.051},
      {"measurement": "glycan array binding signal (z-score)", "setting": "[15]", "result": -0.073},
      {"measurement": "glycan array binding signal (z-score)", "setting": "Fuc(a1-2)[Gal(a1-3)]Gal", "result": -0.37},
      {"measurement": "glycan array binding signal (z-score)", "setting": "[16]", "result": -0.35},
      {"measurement": "glycan array binding signal (z-score)", "setting": "[17]", "result": -0.553},
      {"measurement": "glycan array binding signal (z-score)", "setting": "[18]", "result": -0.451},
      {"measurement": "glycan array binding signal (z-score)", "setting": "[19]", "result": 0.145},
      {"measurement": "glycan array binding signal (z-score)", "setting": "[20]", "result": -0.264},
      {"measurement": "glycan array binding signal (z-score)", "setting": "[21]", "result": 0.007},
      {"measurement": "glycan array binding signal (z-score)", "setting": "[22]", "result": -0.112},
      {"measurement": "glycan array binding signal (z-score)", "setting": "[23]", "result": -0.045},
      {"measurement": "glycan array binding signal (z-score)", "setting": "[24]", "result": -0.387},
      {"measurement": "glycan array binding signal (z-score)", "setting": "[25]", "result": -0.61},
      {"measurement": "glycan array binding signal (z-score)", "setting": "[26]", "result": 0.383},
      {"measurement": "glycan array binding signal (z-score)", "setting": "[27]", "result": 0.053},
      {"measurement": "glycan array binding signal (z-score)", "setting": "[28]", "result": -0.168},
      {"measurement": "glycan array binding signal (z-score)", "setting": "[29]", "result": 0.249},
      {"measurement": "glycan array binding signal (z-score)", "setting": "[30]", "result": -0.106},
      {"measurement": "glycan array binding signal (z-score)", "setting": "[31]", "result": -0.358},
      {"measurement": "glycan array binding signal (z-score)", "setting": "[32]", "result": 0.502},
      {"measurement": "glycan array binding signal (z-score)", "setting": "[33]", "result": 0.147},
      {"measurement": "glycan array binding signal (z-score)", "setting": "[34]", "result": -0.28},
      {"measurement": "glycan array binding signal (z-score)", "setting": "[35]", "result": -0.119},
      {"measurement": "glycan array binding signal (z-score)", "setting": "[36]", "result": 0.334}
    ]}
  ]
}
